The other results are listed elsewhere or left out.
Tests used:
Assay in all cases: glycan array binding signal (z-score within array); higher = stronger binding
Conditions in all cases: glycan notation: IUPAC condensed, linker removed
[1] = biological target: Neu5Ac(a2-6)GlcNAc(b1-4)GlcNAc
Summary of the method: (§1)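 The Consortium for Functional Glycomics database supplied 3228 glycan arrays, of which those lacking an available protein sequence were dropped. The binding signal, a within-array Z-score, was averaged across arrays of the same protein sequence and across linkers. Negative scores can be read as non-binding.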

[2] = biological target: Neu5Ac(a2-6)GlcNAc(b1-4)GlcNAc(b1-4)GlcNAc
Summary of the method: as §1

Neu5Ac(a2-8)Neu5Ac = biological target: Neu5Ac(a2-8)Neu5Ac
Summary of the method: as §1

[3] = biological target: Neu5Ac(a2-8)Neu5Ac(a2-3)Gal(b1-3)GalNAc(b1-4)[Neu5Ac(a2-3)]Gal(b1-4)Glc
Summary of the method: as §1

[4] = biological target: Neu5Ac(a2-8)Neu5Ac(a2-3)Gal(b1-3)GalNAc(b1-4)[Neu5Ac(a2-8)Neu5Ac(a2-3)]Gal(b1-4)Glc
Summary of the method: as §1

[5] = biological target: Neu5Ac(a2-8)Neu5Ac(a2-3)Gal(b1-4)Glc
Summary of the method: as §1

[6] = biological target: Neu5Ac(a2-8)Neu5Ac(a2-3)Gal(b1-4)GlcNAc
Summary of the method: as §1

[7] = biological target: Neu5Ac(a2-8)Neu5Ac(a2-3)[Gal(b1-3)GalNAc(b1-4)]Gal(b1-4)Glc
Summary of the method: as §1

[8] = biological target: Neu5Ac(a2-8)Neu5Ac(a2-3)[GalNAc(b1-4)]Gal(b1-4)Glc
Summary of the method: as §1

[9] = biological target: Neu5Ac(a2-8)Neu5Ac(a2-8)Neu5Ac
Summary of the method: as §1

[10] = biological target: Neu5Ac(a2-8)Neu5Ac(a2-8)Neu5Ac(a2-3)Gal(b1-4)Glc
Summary of the method: as §1

[11] = biological target: Neu5Ac(a2-8)Neu5Ac(a2-8)Neu5Ac(a2-3)[Gal(b1-3)GalNAc(b1-4)]Gal(b1-4)Glc
Summary of the method: as §1

[12] = biological target: Neu5Ac(a2-8)Neu5Ac(a2-8)Neu5Ac(a2-3)[GalNAc(b1-4)]Gal(b1-4)Glc
Summary of the method: as §1

[13] = biological target: Neu5Ac(a2-8)Neu5Ac(a2-8)Neu5Ac(a2-8)Neu5Ac(a2-3)[GalNAc(b1-4)]Gal(b1-4)Glc
Summary of the method: as §1

[14] = biological target: Neu5Ac(a2-8)Neu5Gc(a2-3)Gal(b1-4)GlcNAc
Summary of the method: as §1

[15] = biological target: Neu5Ac(b2-6)Gal(b1-4)GlcNAc
Summary of the method: as §1

Neu5Ac(b2-6)GalNAc = biological target: Neu5Ac(b2-6)GalNAc
Summary of the method: as §1

[16] = biological target: Neu5Ac9Ac(a2-3)Gal(b1-3)GlcNAc
Summary of the method: as §1

[17] = biological target: Neu5Ac9Ac(a2-3)Gal(b1-4)GlcNAc
Summary of the method: as §1

[18] = biological target: Neu5Ac9Ac(a2-6)Gal(b1-4)GlcNAc
Summary of the method: as §1

[19] = biological target: Neu5Gc(a2-3)Gal(b1-3)GlcNAc
Summary of the method: as §1

[20] = biological target: Neu5Gc(a2-3)Gal(b1-3)[Fuc(a1-4)]GlcNAc
Summary of the method: as §1

Neu5Gc(a2-3)Gal(b1-4)Glc = biological target: Neu5Gc(a2-3)Gal(b1-4)Glc
Summary of the method: as §1

[21] = biological target: Neu5Gc(a2-3)Gal(b1-4)GlcNAc
Summary of the method: as §1

[22] = biological target: Neu5Gc(a2-3)Gal(b1-4)GlcNAc(b1-3)Gal(b1-4)GlcNAc(b1-2)Man(a1-3)[Neu5Gc(a2-3)Gal(b1-4)GlcNAc(b1-3)Gal(b1-4)GlcNAc(b1-2)Man(a1-6)]Man(b1-4)GlcNAc(b1-4)GlcNAc
Summary of the method: as §1

[23] = biological target: Neu5Gc(a2-3)Gal(b1-4)[Fuc(a1-3)]GlcNAc
Summary of the method: as §1

[24] = biological target: Neu5Gc(a2-6)Gal(b1-4)GlcNAc
Summary of the method: as §1

Neu5Gc(a2-6)GalNAc = biological target: Neu5Gc(a2-6)GalNAc
Summary of the method: as §1

[25] = biological target: Neu5Gc(a2-8)Neu5Ac(a2-3)Gal(b1-4)GlcNAc
Summary of the method: as §1

[26] = biological target: Neu5Gc(a2-8)Neu5Gc(a2-3)Gal(b1-4)GlcNAc
Summary of the method: as §1

[27] = biological target: Neu5Gc(a2-8)Neu5Gc(a2-3)Gal(b1-4)GlcNAc(b1-3)Gal(b1-4)GlcNAc
Summary of the method: as §1

[28] = biological target: Neu5Gc(a2-8)Neu5Gc(a2-6)Gal(b1-4)GlcNAc
Summary of the method: as §1

[29] = biological target: Neu5Gc(b2-6)Gal(b1-4)GlcNAc
Summary of the method: as §1

B1: SP15308C-bot-338-23-338 (Bacteroides ovatus) (protein)
chain: DEWTDEQFKQLISFKTQPGGWGVTDVHVRYANSAKYTYNLPVLVSGSTDNTDDRLVSFSLRDDTLDILNFEKFGNRPELYFRELPQKYYSFPKELTIPAGQSHALLPIEFSLDGLDDSQKWALPLKVCEDANGTYAVNPRKYYRTAVLRPILFNEFSGRFSGSSLLGTMAGESDIKFSSTEIKLNVVTDSIVFFYAGQRTEDYEDRINYKVFLQFTGDKVDSKKDLYKMKIWAENEKLKFNSYSTPTYKVSSEMDATKTYLKHTYIVISDIDFDFVDYTSVPNYEIEYNMKGGLSVSRDLDTRKPDEDQGSDSKWW
**Q.** For B1, which “glycan array binding signal (z-score)” value [1] is on record?
**A.** The value was 0.274.

**Q.** What about the “glycan array binding signal (z-score)” value [2] of the same binder?
**A.** Its value is -0.236.

**Q.** And the “glycan array binding signal (z-score)” value (Neu5Ac(a2-8)Neu5Ac)?
**A.** Its value is -0.476.

**Q.** What about the “glycan array binding signal (z-score)” value [3] of the same binder?
**A.** Its value is -0.324.

**Q.** What about the “glycan array binding signal (z-score)” value [4] of the same binder?
**A.** Its value is 0.574.

**Q.** And the “glycan array binding signal (z-score)” value [5]?
**A.** Its value is -0.032.

**Q.** And the “glycan array binding signal (z-score)” value [6]?
**A.** The value was -0.606.

**Q.** What about the “glycan array binding signal (z-score)” value [7] of the same binder?
**A.** Its value is -0.637.

**Q.** What about the “glycan array binding signal (z-score)” value [8] of the same binder?
**A.** The value was -0.312.

**Q.** And the “glycan array binding signal (z-score)” value [9]?
**A.** Its value is -0.17.

**Q.** What about the “glycan array binding signal (z-score)” value [10] of the same binder?
**A.** The value was 0.013.

**Q.** And the “glycan array binding signal (z-score)” value [11]?
**A.** The value was -0.219.

**Q.** What about the “glycan array binding signal (z-score)” value [12] of the same binder?
**A.** The value was -0.598.

**Q.** And the “glycan array binding signal (z-score)” value [13]?
**A.** The value was 0.002.

**Q.** What about the “glycan array binding signal (z-score)” value [14] of the same binder?
**A.** The value was -0.236.

**Q.** And the “glycan array binding signal (z-score)” value [15]?
**A.** The value was -0.439.

**Q.** And the “glycan array binding signal (z-score)” value (Neu5Ac(b2-6)GalNAc)?
**A.** The value was -0.832.

**Q.** What about the “glycan array binding signal (z-score)” value [16] of the same binder?
**A.** Its value is 0.029.

**Q.** And the “glycan array binding signal (z-score)” value [17]?
**A.** The value was 0.148.

**Q.** What about the “glycan array binding signal (z-score)” value [18] of the same binder?
**A.** The value was -0.466.

**Q.** And the “glycan array binding signal (z-score)” value [19]?
**A.** Its value is -0.389.

**Q.** And the “glycan array binding signal (z-score)” value [20]?
**A.** Its value is 0.492.

**Q.** What about the “glycan array binding signal (z-score)” value (Neu5Gc(a2-3)Gal(b1-4)Glc) of the same binder?
**A.** Its value is -0.607.

**Q.** And the “glycan array binding signal (z-score)” value [21]?
**A.** The value was -0.751.

**Q.** What about the “glycan array binding signal (z-score)” value [22] of the same binder?
**A.** Its value is -0.584.

**Q.** What about the “glycan array binding signal (z-score)” value [23] of the same binder?
**A.** The value was -0.738.

**Q.** And the “glycan array binding signal (z-score)” value [24]?
**A.** The value was -0.639.

**Q.** What about the “glycan array binding signal (z-score)” value (Neu5Gc(a2-6)GalNAc) of the same binder?
**A.** The value was -0.421.

**Q.** What about the “glycan array binding signal (z-score)” value [25] of the same binder?
**A.** Its value is 0.418.

**Q.** And the “glycan array binding signal (z-score)” value [26]?
**A.** Its value is -0.714.

**Q.** What about the “glycan array binding signal (z-score)” value [27] of the same binder?
**A.** The value was -0.053.

**Q.** What about the “glycan array binding signal (z-score)” value [28] of the same binder?
**A.** The value was -0.343.

**Q.** And the “glycan array binding signal (z-score)” value [29]?
**A.** Its value is 0.812.
